For 4 molecules, binding results are on record in PMC5393187.

Sequences of proteins named here, by UniProt entry; tags and fusion partners are left off.
UniProt P53327: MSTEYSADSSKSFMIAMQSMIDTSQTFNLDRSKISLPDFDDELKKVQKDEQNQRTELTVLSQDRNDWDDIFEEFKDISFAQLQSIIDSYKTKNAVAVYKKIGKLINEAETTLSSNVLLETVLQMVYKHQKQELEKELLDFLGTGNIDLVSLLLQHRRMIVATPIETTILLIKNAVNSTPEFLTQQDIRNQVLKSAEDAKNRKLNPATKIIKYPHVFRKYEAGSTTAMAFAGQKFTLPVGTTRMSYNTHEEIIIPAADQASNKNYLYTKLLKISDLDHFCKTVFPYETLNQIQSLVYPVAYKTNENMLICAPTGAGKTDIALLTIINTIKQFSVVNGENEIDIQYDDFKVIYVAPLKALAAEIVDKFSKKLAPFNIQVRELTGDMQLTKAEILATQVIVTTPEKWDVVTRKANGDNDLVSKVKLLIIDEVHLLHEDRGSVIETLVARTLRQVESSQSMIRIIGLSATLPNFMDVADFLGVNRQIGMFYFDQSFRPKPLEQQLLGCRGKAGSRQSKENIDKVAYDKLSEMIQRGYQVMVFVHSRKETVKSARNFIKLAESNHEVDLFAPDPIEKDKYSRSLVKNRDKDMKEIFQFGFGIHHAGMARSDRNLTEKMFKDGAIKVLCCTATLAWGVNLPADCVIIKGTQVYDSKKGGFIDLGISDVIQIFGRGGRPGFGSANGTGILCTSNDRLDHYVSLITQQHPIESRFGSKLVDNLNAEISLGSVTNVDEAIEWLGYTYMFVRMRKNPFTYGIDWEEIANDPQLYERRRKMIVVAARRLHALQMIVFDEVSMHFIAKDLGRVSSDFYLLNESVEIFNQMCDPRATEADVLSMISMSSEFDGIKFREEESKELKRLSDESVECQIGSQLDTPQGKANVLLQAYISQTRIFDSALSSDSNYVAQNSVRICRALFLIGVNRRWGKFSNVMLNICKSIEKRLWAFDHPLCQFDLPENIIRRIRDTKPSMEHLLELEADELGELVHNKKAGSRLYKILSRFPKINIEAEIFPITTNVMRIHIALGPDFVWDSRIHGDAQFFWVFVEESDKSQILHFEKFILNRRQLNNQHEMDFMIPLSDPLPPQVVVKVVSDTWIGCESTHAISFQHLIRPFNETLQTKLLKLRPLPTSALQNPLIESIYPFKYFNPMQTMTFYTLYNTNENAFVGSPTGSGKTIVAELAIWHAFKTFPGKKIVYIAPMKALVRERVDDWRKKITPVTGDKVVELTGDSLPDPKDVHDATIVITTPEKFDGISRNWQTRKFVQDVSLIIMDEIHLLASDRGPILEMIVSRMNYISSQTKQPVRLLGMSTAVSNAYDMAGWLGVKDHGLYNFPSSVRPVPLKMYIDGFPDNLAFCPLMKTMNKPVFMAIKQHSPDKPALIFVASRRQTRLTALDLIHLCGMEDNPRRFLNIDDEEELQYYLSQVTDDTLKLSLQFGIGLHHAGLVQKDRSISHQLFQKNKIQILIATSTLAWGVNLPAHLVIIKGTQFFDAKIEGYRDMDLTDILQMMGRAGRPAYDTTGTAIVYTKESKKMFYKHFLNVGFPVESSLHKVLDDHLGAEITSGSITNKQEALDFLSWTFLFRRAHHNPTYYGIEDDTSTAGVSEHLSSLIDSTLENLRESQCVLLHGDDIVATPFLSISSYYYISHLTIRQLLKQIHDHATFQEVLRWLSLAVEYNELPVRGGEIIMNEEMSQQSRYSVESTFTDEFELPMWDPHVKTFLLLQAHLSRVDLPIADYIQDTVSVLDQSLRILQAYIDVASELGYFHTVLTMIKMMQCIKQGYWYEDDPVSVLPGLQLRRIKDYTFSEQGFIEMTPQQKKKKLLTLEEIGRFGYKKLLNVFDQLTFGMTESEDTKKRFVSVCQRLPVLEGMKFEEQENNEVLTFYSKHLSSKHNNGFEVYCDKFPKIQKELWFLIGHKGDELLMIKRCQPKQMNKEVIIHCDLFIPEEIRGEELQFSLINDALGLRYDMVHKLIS
UniProt Q03195: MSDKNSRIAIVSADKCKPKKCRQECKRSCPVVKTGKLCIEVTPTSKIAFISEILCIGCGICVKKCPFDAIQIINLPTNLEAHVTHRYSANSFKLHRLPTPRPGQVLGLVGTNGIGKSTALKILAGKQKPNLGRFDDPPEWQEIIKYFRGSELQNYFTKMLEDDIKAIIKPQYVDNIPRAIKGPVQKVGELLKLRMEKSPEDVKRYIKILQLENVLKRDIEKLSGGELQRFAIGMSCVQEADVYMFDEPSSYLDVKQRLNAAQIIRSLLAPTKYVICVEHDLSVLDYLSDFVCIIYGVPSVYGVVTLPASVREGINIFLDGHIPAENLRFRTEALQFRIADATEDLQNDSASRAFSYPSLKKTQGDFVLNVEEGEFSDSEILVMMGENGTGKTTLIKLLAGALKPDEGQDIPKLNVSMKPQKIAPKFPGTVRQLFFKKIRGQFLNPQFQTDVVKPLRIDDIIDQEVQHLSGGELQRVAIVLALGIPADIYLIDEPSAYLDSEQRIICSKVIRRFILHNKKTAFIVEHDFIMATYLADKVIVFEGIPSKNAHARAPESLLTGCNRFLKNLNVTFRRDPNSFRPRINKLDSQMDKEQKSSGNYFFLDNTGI
UniProt P12385: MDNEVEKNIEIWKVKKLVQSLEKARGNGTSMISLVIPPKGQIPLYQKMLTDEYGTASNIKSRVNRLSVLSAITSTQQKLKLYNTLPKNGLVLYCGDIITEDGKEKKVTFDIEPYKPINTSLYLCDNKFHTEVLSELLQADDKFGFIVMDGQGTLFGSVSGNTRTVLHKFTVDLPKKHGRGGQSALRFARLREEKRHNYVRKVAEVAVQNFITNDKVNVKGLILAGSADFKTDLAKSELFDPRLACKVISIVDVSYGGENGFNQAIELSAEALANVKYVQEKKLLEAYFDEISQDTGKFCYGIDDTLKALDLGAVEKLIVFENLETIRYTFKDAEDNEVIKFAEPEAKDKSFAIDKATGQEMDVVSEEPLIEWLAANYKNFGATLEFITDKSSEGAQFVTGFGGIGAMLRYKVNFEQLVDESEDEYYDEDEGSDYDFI

No constants are given. Whether binding was seen depends on the method and setting. Binding seen in cells or lysates may run through a third protein. A yes stands for co-enrichment or nearness to the bait. Other partners may have been found.

In experiment [1] the target is T1, Hel2 (S. cerevisiae) (UniProt Q05580).
T1 sequence: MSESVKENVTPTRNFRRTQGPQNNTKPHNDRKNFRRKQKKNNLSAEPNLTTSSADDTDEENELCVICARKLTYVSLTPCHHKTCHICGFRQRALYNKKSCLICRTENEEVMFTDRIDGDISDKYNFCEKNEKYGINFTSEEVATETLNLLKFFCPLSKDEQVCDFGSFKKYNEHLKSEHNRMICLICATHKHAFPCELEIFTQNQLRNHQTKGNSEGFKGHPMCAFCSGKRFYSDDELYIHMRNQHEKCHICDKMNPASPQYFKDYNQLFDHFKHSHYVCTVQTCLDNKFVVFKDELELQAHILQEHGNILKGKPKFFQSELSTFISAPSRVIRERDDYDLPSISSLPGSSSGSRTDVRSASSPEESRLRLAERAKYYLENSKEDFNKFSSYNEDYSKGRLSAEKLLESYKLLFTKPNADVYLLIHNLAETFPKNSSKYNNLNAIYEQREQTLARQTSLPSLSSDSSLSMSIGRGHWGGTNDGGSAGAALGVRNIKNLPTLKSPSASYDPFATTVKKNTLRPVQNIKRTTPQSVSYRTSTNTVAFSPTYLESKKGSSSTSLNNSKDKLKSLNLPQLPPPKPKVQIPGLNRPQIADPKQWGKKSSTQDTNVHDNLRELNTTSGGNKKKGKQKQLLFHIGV
In words: affinity purification with mass spectrometry; IPs of endogenously tagged Hel2 and Slh1 from cryo-ground yeast extract on Anti-FLAG M2 Affinity Resin, 1 h, 4°C, IP buffer (20 mM HEPES K pH 7.4, 100 mM KOAc, 10 mM MgCl2); eluted with 1 mg/mL 3xFlag peptide; enrichment against a nontagged control IP, two biological replicates.

Experiment [2] deals with Slh1 (S. cerevisiae) (UniProt P53327). The description is as above.

For the molecule Rli1 (from UniProt Q03195 1-608), the binding result in experiment [1] and in experiment [2] was “binds” throughout.

Regarding eRF1(Sup45) (from UniProt P12385 1-437), the binding entry in experiment [1] and in experiment [2] was “binds” in each case.

B1: Ykr023w (protein, UniProt P36119 1-530)
chain: MTRKQAIDYAIKQVPQILPLEESDVKALCEQVLSTSSDDPEQIASKFLEFLGHEDLSFEFVMKFNELLNQNDKKEEKKTKNVHLEHTAPTSWKNESKQPTNNYINKKGDEKPKKLKDEKKSSTTRPTVQPSNQSTQSNPIKEKKEHRSKGKLQSLQEIDEAIKMLELRDSGSSKNCNCQGTRHPVFDIAPNCLHCGKVVCVIEGLNKGKCGHCHEQLISDNERTQMVEILNQEKNELNGSSSSLSNASNGANVPKKKTKTYKITSGMGKNLFAEQDKLFDFIERKRERERKRNEVLKLQEEKEESEAKERQASEHDHKAEENPELLAAQERLDRLLYFQDTSAERTKIIDNASDFDMNQEVGLWGSARERALALKKQQRNLRKWEKVEKERNGRREKYVVSMNIGSNGKVTMTEVPKDTENVIAGSDDDISDISDEEDISDLKHIHALKSEINTTKSLENLHLQSKAWDYERDKKQFDRPTYVKKNSDTAQQNRKTEEKAHDMQAYDLKSRVQVDQNADASVEQNILAVL
For the molecule B1, the binding entry in experiment [1] and in experiment [2] was “binds” each time.

B2: Cue3 (protein, UniProt P53137 1-624)
chain: MLSRYNRVIEINGGNADISLPIVKFPPFKLRAQLIEKDPVVWLHLIETYVTYFEYLMQGANVELLDESTLDHLRLFLRTYLHEIADEEGKLLSLGINHDVSEQLYLLKGWIFSLIKKCGLLHLQIFGDSLWNLIKVYVRRNPDSIRGLIDGSLKPRINTQRVQLDKSYQVQQHLKQLIESGKFKRIDLRCVEDLLSAKSMQPNKFAENFFTANWIEILEALWAKGQGRGHKEARELIIISLFSVSADRLLKITKELGISNFETLALYPLLGTMLINEGVHKRLPDLKSKLLFLNLGGLSMDEGDHMSYPTSSGTEVNEEQLSALMELFPQFSKYQLSQTLLAYDNNIELVTNKIFEDPTIIEAFSREPAEEEVEPVSDGDNASFTEELSILDRGDSSKNKELDKKIISEGVPDELRNKTLTRALKLLYEADEDERDDTYDEADVNRSDPSKRIGLQEDEESYDTKDDSNEVRQDHNYHIVEAYLWNLLKEDPKLFERSKRGTKVRKTMKEMTSWSDEKIEGWCRMLERSPTRARLLEKKFMFKGNSKTGKTSYVHNRDSQNDGNVVKEQAKQKKSENIKKHEPQSTEQKKRQHAKNEKRKGARANHNRKKGHDKKLARAGNNAI
Consider B2, for which the binding result in experiment [1] and in experiment [2] was “binds” in each case.
